# Test results taken from the supplement of paper PMC10338343.
# ± gives the standard deviation. Only a part is listed here, and it is no random draw. Many of these values have a large error.
# System: EfPiwi piRISC loaded with piRNA #1 (26 nt)
# Assay: pre-steady-state target cleavage rate (min^-1); guide: piRNA #1 5'p-UGAGGUAGUAGGUUGUAUAGUAUCCA; MIWI and MILI are mouse PIWI proteins and EfPiwi is from a freshwater sponge; tags in brackets are library labels; higher = faster piRNA-guided slicing of the target
# Conditions: auxiliary factor: 500 nM Ephydatia muelleri Gtsf1
# Procedure: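 Cleave-'n-Seq: a library of target RNAs (target site in constant flanks) at […] was incubated with 1 nM active freshwater sponge Ephydatia fluviatilis Piwi piRISC (synthetic 5'-monophosphorylated piRNA guide) with or without 500 nM EmGtsf1 at 33 °C for 1 min to 16 h. Uncleaved targets were sequenced and the pooled three trials fitted to a burst-and-steady-state model to give the pre-steady-state cleavage rate (min^-1). Sequence is the target site only. Fits with R² ≤ 0 are excluded.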
row,Sequence,pre-steady-state target cleavage rate
1,GGAGACCUAUCUAUUGAACCUACUACCUCA,0.000822 ± 0.0077
2,GGAGACCUAUGUAUACAACCUUCUACCUCA,0.00129 ± 0.005
3,GGAGACGAUACAAUACUACCUACUACCUCA,0.00238 ± 0.0021
4,GGAGACCUAUGUAUAGAAGCUACUACCUCA,0.000384 ± 0.0067
5,GGAGACGAUUCUAUACAACCUACAACCUCA,0.00277 ± 0.0012
6,GGAGACCUAACUAUACAACGUACAACCUCA,0.00218 ± 0.0047
7,GGAGACCAUACUAUACAACCAUGAUGGAGA [g11:g23:cont:t1A],0.00272 ± 0.0042
8,GGAGACCUAUGUUUACAUCCUACUACCUCA,0.00263 ± 0.0054
9,GGAGUCCAUACUAUACAACCUACUACCUCA,0.0575 ± 0.019
10,GGAGACCUAUGAUAUGUACGUACUACCUGA,0.000178 ± 0.013
11,GGAGACCUAACGUAUACAACCUACUACCUCA,0.0505 ± 0.021
12,GGAGACGAUUCUAUAGAACCUACUACCUCA,0.00226 ± 0.0018
13,GGAGACCUAACCUAUACAACCUACUACCUCA,0.0868 ± 0.028
14,GGAGACCUUACUAAACAACCUACUACGUCA,0.000834 ± 0.0065
15,GGAGACCUAUGAAUACAAGCUACUACGUCA,0.000606 ± 0.013
16,GGAGAGGAUACUAUACAAGCCUACUACCUCA,0.00835 ± 0.005
17,GGAGAGGAUACAAUAGAACCUACUACCUCA,0.00186 ± 0.0029
18,GGAGACCUAUGAUUUCAACCUAGUACCUCA,0.00098 ± 0.0072
19,GGAGACCAUACUAUACUAGCUACUACCUCA,0.000516 ± 0.0069
20,GGAGUGGAUACUAUACAACCUACUCCCUCA,0.00426 ± 0.0017

# A different layout for part of the listing above.
row	Sequence	pre-steady-state target cleavage rate
2	GGAGACCUAUGUAUACAACCUUCUACCUCA	0.00129 ± 0.005
11	GGAGACCUAACGUAUACAACCUACUACCUCA	0.0505 ± 0.021
14	GGAGACCUUACUAAACAACCUACUACGUCA	0.000834 ± 0.0065

# Going on with the list:

row,Sequence,pre-steady-state target cleavage rate
1,GGAGUGGAUACUAUAGAACCUACUACCUGA,0.00222 ± 0.0011
2,GGAGACCUAUGAAUACAACCUACAACGUCA,0.000222 ± 0.015
3,GGAGAUGAUACUAUACAACCUACUACCUCA,0.193 ± 0.068
4,GGAGACCAUACUAUACCACCUACUACCUCA,0.00807 ± 0.004
5,GGAGAGGAUACUAUACAACAUACUACCUCA,0.0063 ± 0.0023
6,GGAGACCUAACUAUACAACCUACUACCACA,0.00545 ± 0.0034
7,GGAGUGGAUACUAUACAACCUAGUACGUCA,0.00381 ± 0.0014
8,GGAGACCUAUGUUUACAACGUACUACCUCA,0.000588 ± 0.0042
9,GGAGACCUAUCUAUACAUGGAUGAUGGAGA [g14:g20:cont:t1A],0.000107 ± 0.02
10,GGAGACGAUACUAUAGAACCUACUACCUCA,0.00433 ± 0.0017
11,GGAGACCUAUCUAUACUACCUACUAGCUCA,0.00208 ± 0.0058
12,GGAGACGAUACAAUACAACCUACUUCCUCA,0.00147 ± 0.0023
13,GGAGUGGAUACUAUACAACCUAGUACCUGA,0.00271 ± 0.001
14,GGAGACCAUACUAUACAACCUACUACGUGA,0.0051 ± 0.0028
15,GGAGACCUAUGAAUACAACCUACUACCUACA,0.000306 ± 0.021
16,GGAGACCUAUGAUAUGUUCCUACUACGUCA,0.000385 ± 0.0064
17,GGAGACCUAACAAUACAACGUACUACCUCA,0.00158 ± 0.0059
18,GGAGACCUUACUAUACAACCUACUAACUCA,0.00261 ± 0.0027
19,GGAGACCAUACUAUACAACGUACUUCCUCA,0.00544 ± 0.0032
20,GGAGAGGAUAGUAUACAACCUACAACCUCA,0.00249 ± 0.0021
